Data on one compound can be found in US20220175926A1, “TARGETED SYNERGISTIC CANCER IMMUNOTHERAPY” (The Brigham and Women's Hospital, Inc., priority 2019, published 2022).

This data set is described as follows: ROS generation with sonosensitizer and ultrasound (DCFH fluorescent probe).

As to `CC1(C)C(/C=C/C=C/C=C/C=C2\N(CCCCS(=O)(=O)O)c3ccc4ccccc4c3C2(C)C)=[N+](CCCCS(=O)(=O)[O-])c2ccc3ccccc3c21` [ICG, indocyanine green], the ROS levels result (agent alone, no ultrasound) is “background levels of ROS”. Where the note is “sonosensitizer plus ultrasound, same ultrasound condition”, the “ROS induced relative to ultrasound alone” value was “over 2.5 fold”.
